Laboratory results: patent US20250115655A1, “PHARMACEUTICALS AND DEVICES FOR THE COVALENT IMMOBILIZATION TO THE EXTRACELLULAR MATRIX BY TRANSGLUTAMINASE” (JULIUS-MAXIMILIANS-UNIVERSITÄT WÜRZBURG, priority 2017, published 2025)
Some entries share one result that the patent states for a list of compounds.

Target: T1, Factor XIIIa (Homo sapiens, UniProt P00488)
T1 construct: purchased Fibrogammin®
T1 sequence (P00488 39-732 limits assumed): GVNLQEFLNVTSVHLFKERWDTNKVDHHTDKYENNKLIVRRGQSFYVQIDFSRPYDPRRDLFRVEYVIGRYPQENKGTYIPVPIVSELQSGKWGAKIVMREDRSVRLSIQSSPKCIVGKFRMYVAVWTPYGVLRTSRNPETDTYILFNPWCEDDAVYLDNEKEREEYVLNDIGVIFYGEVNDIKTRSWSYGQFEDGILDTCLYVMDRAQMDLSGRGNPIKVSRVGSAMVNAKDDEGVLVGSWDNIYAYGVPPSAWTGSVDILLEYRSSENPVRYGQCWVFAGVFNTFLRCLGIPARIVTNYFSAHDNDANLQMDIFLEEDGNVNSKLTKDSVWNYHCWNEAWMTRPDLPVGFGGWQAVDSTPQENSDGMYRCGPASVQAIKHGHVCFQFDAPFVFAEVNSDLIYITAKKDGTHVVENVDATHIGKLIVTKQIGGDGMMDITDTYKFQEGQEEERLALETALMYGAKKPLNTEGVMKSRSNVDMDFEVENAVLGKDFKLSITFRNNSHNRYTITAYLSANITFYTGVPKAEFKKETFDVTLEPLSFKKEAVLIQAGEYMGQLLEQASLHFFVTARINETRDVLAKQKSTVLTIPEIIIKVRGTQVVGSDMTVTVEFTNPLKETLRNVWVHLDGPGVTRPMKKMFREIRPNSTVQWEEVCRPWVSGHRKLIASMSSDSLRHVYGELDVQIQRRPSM
Experiment: Crosslinking of D domain peptides to a glutamine substrate derived from α-2 plasmin inhibitor, catalyzed by FXIIIa, RP-HPLC
Type: biochemical
Conditions: after 30 minutes
Excerpt: Using solid phase peptide synthesis, the isolated peptide sequence of the D domain of human IGF-I (SEQ ID NO: 1) and mouse IGF-I (SEQ ID NO: 6) were synthesized and purified using preparative HPLC to achieve >95% purity. Additionally, a collection of N-terminally truncated versions of both sequences were created, in order to test if 7 or less amino acids are sufficient to be recognized by Factor XIIIa. According to a trypsin digest of coupled IGF-I, only K68 is modified and therefore, a reduction of the sequence to the last 3 amino acids could be possible. The truncated versions were manufactured and purified accordingly. Lyophilized peptides were dissolved in Tris buffer (20 mM Tris-HCl, 150 mM NaCl, pH 7.6) and reacted with a glutamine substrate (SEQ ID NO: 13, derived from α-2 plasmin inhibitor) in presence of 0.1 M calcium chloride and 10 U/ml Factor XIIIa (Fibrogammin®, activated with 0.02 U/ml thrombin). Following 30 minutes incubation at 37° C., the coupling reaction was stopped and the amount of crosslinked peptide analyzed using analytical RP-HPLC. The crosslinking ratios using equimolar amounts of both peptides (D domain and glutamine acceptor) are depicted in Table 1.

## PLKPTKAA (listed as Mus musculus) [SEQ ID NO: 6, isolated D domain of mouse IGF-I]
  covalent conjugation (crosslinked product): > 80%
